One experiment relates to HCT116 PTTG1−/− cells. The experiment can be described thus: BrdU incorporation assay. Conditions: Homo sapiens, HCT-116, read-out: inhibition of cell proliferation (BrdU incorporation). The class given is cell-based. How it is done:
(§1) The BrdU incorporation assay was carried out using a commercial kit. Briefly, culture cells in 96-well microplates in a final volume of 100 ul culture medium per well. After treatment, add 10 ul BrdU labeling solution per well (final concentration: 10 uM BrdU) and incubate for 2-18 h at 37° C. Carefully remove the culture medium and wash cells twice with 250 ul wash medium containing 10% serum per well. Cells fixed and treated with nucleases working solution for 30 min at 37° C. The incorporated BrdU is detected using anti-BrdU-POD, Fab fragments and peroxidase substrate ABTS. The absorbances of the samples are measured at 405 nm against the background control, using a Victor 3 multiwell plate reader.
(In general: Incorporation of labelled thymidine or its analogues reports DNA synthesis.)

Another experiment has as its system HCT116 WT cells. In words: BrdU incorporation assay. As to conditions: Homo sapiens, HCT-116, read-out: inhibition of cell proliferation (BrdU incorporation). The experiment is classed as cell-based. As for the experimental part: as §1

Molecules are shown by their SMILES.

For the compound `O=C(CCCCCCC(=O)Nc1ccccc1)NO` [SAHA, suberoylanilide hydroxamic acid], the inhibition at 0.313 µM with HCT116 PTTG1−/− cells was 49%; in the experiment on HCT116 WT cells, 14%.
